Data as given in PubChem BioAssay AID1159578 (Peter MacCallum Cancer Centre, 2015)
Shown is a random part of about 18,000 deposited reagents. About 1,030 of them (5.7%) were called active. 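Inactive calls also include pools with fewer than 3300 nuclei, whose migration was not assessed.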 The raw values are shown without normalisation. Unmarked entries are inactive.

Screen: 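Knock-downs that alter how fast lymphatic endothelial cells migrate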 (primary screen)
System: human lymphatic endothelial cells
Knock-down reagent: siRNA pool against human genes, 40 nM
Duration: 48 h after transfection
Read-out: 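Cells stained with dye and imaged after a scratch; covered wound area and nuclei counted, duplicates averaged, migration set against mock wells and turned into a robust z-score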
Scale: migration robust z-score: higher = faster migration into the scratch; migration relative to mock: higher = more scratch area covered than mock; nuclei per well: higher = more cells in the well
Rule for the call: 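Migration changed when robust z exceeds 2 or falls below -2 and mean nuclei number is at least 3300; otherwise not called changed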
Calls: active = migration changed; inactive = no migration change, or too few cells

| target gene | migration robust z-score | migration class with cell-count check | migration relative to mock | nuclei per well, duplicate mean |
| --- | --- | --- | --- | --- |
| MAN1B1 (mannosidase alpha class 1B member 1) | -1.68 | migration z between -2 and 2; enough cells | 0.48 | 4175 |
| NOTCH2 (notch receptor 2) | 0.57 | migration z between -2 and 2; enough cells | 0.92 | 5050 |
| BTAF1 (B-TFIID TATA-box binding protein associated factor 1) | -0.3 | migration z between -2 and 2; enough cells | 0.8 | 6222 |
| ARL6 (ARF like GTPase 6) | -1.32 | migration z between -2 and 2; enough cells | 0.54 | 5889 |
| ALDH1B1 (aldehyde dehydrogenase 1 family member B1) | -0.26 | migration z between -2 and 2; enough cells | 0.76 | 6232 |
| SUDS3 (SIN3A corepressor complex component SDS3) | 0.31 | migration z between -2 and 2; enough cells | 0.96 | 5866 |
| SELENOW (selenoprotein W) | -0.2 | migration z between -2 and 2; enough cells | 0.84 | 3900 |
| CAP2 (cyclase associated actin cytoskeleton regulatory protein 2) | 0.08 | migration z between -2 and 2; enough cells | 0.91 | 5616 |
| TPSAB1 (tryptase alpha/beta 1) | 0.47 | migration z between -2 and 2; enough cells | 1 | 6948 |
| ORM1 (orosomucoid 1) | 0.46 | migration z between -2 and 2; enough cells | 1.01 | 5858 |
| CNPPD1 (cyclin Pas1/PHO80 domain containing 1) | 1.49 | migration z between -2 and 2; enough cells | 1.27 | 7027 |
| RNF183 (ring finger protein 183) | -2.34 (active) | migration z below -2; enough cells | 0.36 | 5054 |
| SLC9A6 | 0.13 | migration z between -2 and 2; enough cells | 0.83 | 5787 |
| ETNK1 (ethanolamine kinase 1) | -0.52 | migration z between -2 and 2; enough cells | 0.7 | 7384 |
| PMFBP1 (polyamine modulated factor 1 binding protein 1) | 0.53 | migration z between -2 and 2; enough cells | 1.02 | 5986 |
| TRAF2 (TNF receptor associated factor 2) | -0.91 | migration z between -2 and 2; enough cells | 0.65 | 4992 |
| PLA2G2F (phospholipase A2 group IIF) | -0.54 | migration z between -2 and 2; enough cells | 0.7 | 5646 |
| BCL6 (BCL6 transcription repressor) | -0.36 | migration z between -2 and 2; enough cells | 0.8 | 7520 |
| C17orf58 (chromosome 17 open reading frame 58) | 0.34 | migration z between -2 and 2; enough cells | 0.98 | 5988 |
| ZNF322P1 (zinc finger protein 322 pseudogene 1) | 0.15 | migration z between -2 and 2; enough cells | 0.92 | 4362 |
| SLITRK6 (SLIT and NTRK like family member 6) | 0.09 | migration z between -2 and 2; enough cells | 0.9 | 6366 |
| PPP2R2B (protein phosphatase 2 regulatory subunit Bbeta) | 0.08 | migration z between -2 and 2; enough cells | 0.82 | 6503 |
| THADA (THADA armadillo repeat containing) | 0.84 | migration z between -2 and 2; enough cells | 1.1 | 6362 |
| FAM167B (family with sequence similarity 167 member B) | -0.44 | migration z between -2 and 2; enough cells | 0.77 | 5866 |
| OR52K1 (olfactory receptor family 52 subfamily K member 1) | -0.6 | migration z between -2 and 2; enough cells | 0.73 | 5228 |
| ZFY (zinc finger protein Y-linked) | -0.3 | migration z between -2 and 2; enough cells | 0.8 | 5198 |
| CYB561D1 (cytochrome b561 family member D1) | -1.23 | migration z between -2 and 2; enough cells | 0.57 | 4879 |
| HRH2 (histamine receptor H2) | -0.9 | migration z between -2 and 2; enough cells | 0.63 | 4944 |
| LACC1 (laccase domain multifunctional purine nucleosidase 1) | -0.32 | migration z between -2 and 2; enough cells | 0.8 | 5817 |
| TMC7 (transmembrane channel like 7) | -0.33 | migration z between -2 and 2; enough cells | 0.8 | 5836 |
| PGM2 (phosphoglucomutase 2) | 0.57 | migration z between -2 and 2; enough cells | 0.92 | 5404 |
| WFDC12 (WAP four-disulfide core domain 12) | -0.6 | migration z between -2 and 2; enough cells | 0.73 | 4650 |
| CORO1C (coronin 1C) | -1.02 | migration z between -2 and 2; enough cells | 0.62 | 4154 |
| RNF215 (ring finger protein 215) | -0.88 | migration z between -2 and 2; enough cells | 0.64 | 4174 |
| ZDHHC15 (zDHHC palmitoyltransferase 15) | -1.12 | migration z between -2 and 2; enough cells | 0.6 | 4958 |

Targets above whose target name begins with O or o (2):
| target gene | migration robust z-score | migration class with cell-count check | migration relative to mock | nuclei per well, duplicate mean |
| --- | --- | --- | --- | --- |
| ORM1 (orosomucoid 1) | 0.46 | migration z between -2 and 2; enough cells | 1.01 | 5858 |
| OR52K1 (olfactory receptor family 52 subfamily K member 1) | -0.6 | migration z between -2 and 2; enough cells | 0.73 | 5228 |

Additional results follow.
| target gene | migration robust z-score | migration class with cell-count check | migration relative to mock | nuclei per well, duplicate mean |
| --- | --- | --- | --- | --- |
| IMP4 (IMP U3 small nucleolar ribonucleoprotein 4) | -0.41 | migration z between -2 and 2; enough cells | 0.78 | 5527 |
| TIMM9 (translocase of inner mitochondrial membrane 9) | 1.38 | migration z between -2 and 2; enough cells | 1.25 | 6681 |
| EIF2B4 (eukaryotic translation initiation factor 2B subunit delta) | 0.83 | migration z between -2 and 2; enough cells | 0.97 | 6025 |
| SDF4 (stromal cell derived factor 4) | 1.17 | migration z between -2 and 2; enough cells | 1.19 | 6013 |
| ACTMAP (actin maturation protease) | -0.64 | migration z between -2 and 2; enough cells | 0.72 | 3878 |
| FSCN1 (fascin actin-bundling protein 1) | -0.98 | migration z between -2 and 2; enough cells | 0.63 | 5098 |
| CD52 (CD52 molecule) | -1.07 | migration z between -2 and 2; enough cells | 0.61 | 5922 |
| CMPK2 (cytidine/uridine monophosphate kinase 2) | -0.06 | migration z between -2 and 2; enough cells | 0.87 | 5508 |
| DRD5 (dopamine receptor D5) | 1.42 | migration z between -2 and 2; enough cells | 1.08 | 5913 |
| FBN3 (fibrillin 3) | -1.46 | migration z between -2 and 2; enough cells | 0.5 | 5352 |
| ZFP69 (ZFP69 zinc finger protein) | -2.26 (active) | migration z below -2; enough cells | 0.3 | 6124 |
| GLS2 (glutaminase 2) | 0.08 | migration z between -2 and 2; enough cells | 0.82 | 5984 |
| EEF1AKMT2 (EEF1A lysine methyltransferase 2) | 1.05 | migration z between -2 and 2; enough cells | 1.16 | 5884 |
| SLC16A2 | -0.08 | migration z between -2 and 2; enough cells | 0.79 | 5560 |
| DIP2B (DIP2 acetate--CoA ligase B (putative)) | 0.54 | migration z between -2 and 2; enough cells | 1.02 | 5674 |
| FBXL3 (F-box and leucine rich repeat protein 3) | -1.14 | migration z between -2 and 2; enough cells | 0.59 | 5494 |
| SCAF4 (SR-related CTD associated factor 4) | 1.89 | migration z between -2 and 2; enough cells | 1.38 | 6194 |
| CDCA3 (cell division cycle associated 3) | -0.78 | migration z between -2 and 2; enough cells | 0.68 | 5615 |
| MINK1 (misshapen like kinase 1) | -2.78 (active) | migration z below -2; enough cells | 0.27 | 3697 |
| CLP1 (cleavage factor polyribonucleotide kinase subunit 1) | -1.69 | migration z between -2 and 2; enough cells | 0.44 | 4994 |
| ESRP2 (epithelial splicing regulatory protein 2) | -1.75 | migration z between -2 and 2; enough cells | 0.42 | 4786 |
| HSD17B4 (hydroxysteroid 17-beta dehydrogenase 4) | -0.24 | migration z between -2 and 2; enough cells | 0.82 | 6744 |
| CPT2 (carnitine palmitoyltransferase 2) | -1.01 | migration z between -2 and 2; enough cells | 0.61 | 4042 |
| NPFF (neuropeptide FF-amide peptide precursor) | -0.02 | migration z between -2 and 2; enough cells | 0.88 | 4828 |
| MGP (matrix Gla protein) | -0.7 | migration z between -2 and 2; enough cells | 0.7 | 5873 |
| SEPSECS | 0.25 | migration z between -2 and 2; enough cells | 0.95 | 6510 |
| PBX1 (PBX homeobox 1) | 0.5 | migration z between -2 and 2; enough cells | 0.9 | 4014 |
| FIGLA (folliculogenesis specific bHLH transcription factor) | -1.18 | migration z between -2 and 2; enough cells | 0.57 | 4335 |
| LRRC8A (leucine rich repeat containing 8 VRAC subunit A) | -0.28 | under 3300 nuclei; migration not judged | 0.81 | 3292 |
| XPC | 0.27 | migration z between -2 and 2; enough cells | 0.96 | 7176 |
| TGIF2LX (TGFB induced factor homeobox 2 like X-linked) | 0.72 | migration z between -2 and 2; enough cells | 0.94 | 5462 |
| UHRF1 (ubiquitin like with PHD and ring finger domains 1) | 0.52 | migration z between -2 and 2; enough cells | 0.9 | 6521 |
| NKX3-1 (NK3 homeobox 1) | 1.19 | migration z between -2 and 2; enough cells | 1.04 | 5565 |
| YWHAB | 0.64 | migration z between -2 and 2; enough cells | 1.05 | 5721 |
| ZCCHC13 (zinc finger CCHC-type containing 13) | -0.67 | migration z between -2 and 2; enough cells | 0.71 | 6278 |
| CT45A6 (cancer/testis antigen family 45 member A6) | 0.56 | migration z between -2 and 2; enough cells | 1.03 | 4522 |
| SSC4D | 0.6 | migration z between -2 and 2; enough cells | 0.92 | 5012 |
| RGS4 (regulator of G protein signaling 4) | -0.64 | migration z between -2 and 2; enough cells | 0.72 | 5377 |
